Test results from PubChem BioAssay AID2517 (National Center for Advancing Translational Sciences (NCATS), 2010).
Hit rate of the full screen: of about 350,000 compounds, about 1,200 (0.34%) were called active. Inconclusive means that the source gave no clear call. Such entries were picked first, then a sample of the others. Calls come from the whole dose curve; as a rule, active = well fitted inhibition curve with a large enough effect; inconclusive = small, poorly fitted or top-dose-only effect; inactive = no such curve, though single readings can be large or run the other way. Potencies of inconclusive entries are doubtful fits and often do not repeat.

By UniProt entry, the sequences of proteins in these tests, tags left out.
UniProt P27695, whole entry, looked up: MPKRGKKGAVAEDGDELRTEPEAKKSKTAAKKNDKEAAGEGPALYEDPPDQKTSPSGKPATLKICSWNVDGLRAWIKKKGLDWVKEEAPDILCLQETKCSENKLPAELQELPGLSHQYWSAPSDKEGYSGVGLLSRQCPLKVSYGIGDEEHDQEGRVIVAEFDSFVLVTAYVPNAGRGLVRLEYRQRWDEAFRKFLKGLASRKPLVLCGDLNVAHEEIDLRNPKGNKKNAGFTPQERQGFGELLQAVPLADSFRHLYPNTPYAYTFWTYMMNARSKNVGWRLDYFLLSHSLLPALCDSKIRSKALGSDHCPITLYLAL

Each compound was assayed against DNA repair nuclease/redox regulator APEX1 (Homo sapiens) (UniProt P27695) (assay: qHTS Assay for Inhibitors of the Human Apurinic/apyrimidinic Endonuclease 1 (APE1)). Conditions: recombinant APE1, TAMRA/BHQ-2 abasic DNA cleavage fluorescence; series mostly up to 65.8 µM.
Outline: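 Compound pre-exposure to 0.75 nM APE1, 15 min at ambient temperature. Reaction initiated with 50 nM TAMRA/BHQ-2 THF substrate, read immediately in kinetic mode, 525 nm excitation, 598 nm emission.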
Note: nearly all actives have a fitted effect of over 55% in size.
Potency is the fitted concentration of half-maximal effect.

Compound	Potency
CCn1c(SCC(=O)Nc2nc(C)cs2)nnc1-c1ccoc1C	inactive
Nc1cc(C(Cl)=C(Cl)Cl)c(S(N)(=O)=O)cc1S(N)(=O)=O	inconclusive: 2.24 µM [inhibitor, full curve, poor fit]
Cc1cc(OCC(=O)Nc2ccc(CN3CCOCC3)cc2)c2c(C)cc(=O)oc2c1	inactive
CCN1CCN(C(=O)CSCc2nc(-c3ccc(OC)c(OC)c3)oc2C)CC1	inconclusive: 35.5 µM [inhibitor, single point]
Cc1cc(C(=O)CSc2nnnn2C)c(C)n1Cc1ccco1	inconclusive: 31.6 µM [inhibitor, single point]
CN(C)c1cccc(OC2C=CC(C#Cc3ccccc3)OC2CO)c1 (stereo not drawn)	inconclusive: 3.55 µM [inhibitor, single point]
Fc1ccc(-c2cc3nc(-c4ccccc4)cc(N4CCN(CCN5CCOCC5)CC4)n3n2)cc1	inconclusive: 35.5 µM [inhibitor, partial curve, poor fit]
COc1ccc(N=Cc2oc3ccc4ccccc4c3c2O)cc1	inconclusive: 39.8 µM [inhibitor, partial curve, poor fit]
O=C(/C=C/c1ccco1)NC(=S)Nc1ccc(Cl)cn1	inconclusive: 28.2 µM [inhibitor, single point]
CO[C@H]1COC(=O)[C@H](C)NC(=O)C/C=C\[C@@H](C)[C@@H](NS(=O)(=O)c2ccc(C)cc2)COC(=O)C/C=C\[C@@H]1C	inconclusive: 3.55 µM [inhibitor, single point]
CCn1nnc(-c2ccccc2NC(=O)C(F)(F)F)n1	inconclusive: 39.8 µM [inhibitor, single point]
O=C(COC(=O)c1cc(S(=O)(=O)N2CCc3ccccc3C2)ccc1Cl)NCc1ccco1	inconclusive: 39.8 µM [inhibitor, single point]
Cc1ccc(C)c(N2CCN(C(=O)c3ccc(Cn4c(=S)[nH]c5ccc(N6CCOCC6)cc5c4=O)cc3)CC2)c1	inconclusive: 1.12 µM [inhibitor, full curve]
CCOC(=O)c1c(NC(=O)COc2ncnc3ccccc23)sc(C(C)=O)c1C	inconclusive: 17.8 µM [inhibitor, single point]
COCCCn1c(=O)/c(=C\c2ccccc2OC(F)F)s/c1=C(/C#N)C(=O)N1CCOCC1	inconclusive: 44.7 µM [inhibitor, single point]
COc1cccc(C2/C(=C(/O)c3ccccc3)C(=O)C(=O)N2Cc2ccco2)c1 (stereo not drawn)	inconclusive: 4.47 µM [inhibitor, single point]
CCCOc1ccc(/C=N/NC(=O)CN(c2ccc(OCC)cc2)S(C)(=O)=O)cc1	inconclusive: 35.5 µM [inhibitor, single point]
Cc1ccc([N+](=O)[O-])cc1S(=O)(=O)Nc1ccc(O)c(Sc2ncn[nH]2)c1	inactive
Cc1nc(C(=O)N2CCc3c([nH]c4ccccc34)C2c2ccccn2)cs1 (stereo not drawn)	inconclusive: 17.8 µM [inhibitor, partial curve]
CCOC(=O)c1sc2nc3c(SCC(=O)O)cc(C(=O)c4ccccc4O)cn3c(=O)c2c1C	inconclusive: 3.16 µM [inhibitor, full curve]
N#Cc1c(-c2ccco2)cc(-c2ccc(F)cc2)nc1N	inactive
O=C(NCCN1CCCCC1)c1c(O)c2ccccc2[nH]c1=O	inconclusive: 44.7 µM [inhibitor, single point]
S=c1[nH]nc(-c2cccc(Cl)c2)n1CCN1CCCCC1	inconclusive: 12.6 µM [inhibitor, partial curve]

Compound	Potency
CCNS(=O)(=O)c1ccc(CCC(=O)Nc2cc(Cl)ccc2Oc2ccccc2)cc1	inconclusive: 39.8 µM [inhibitor, single point]
O=C(COCC(=O)Nc1cccc(C(F)(F)F)c1)Nc1cccc(C(F)(F)F)c1	inconclusive: 3.16 µM [inhibitor, partial curve]
COc1cc(/C=C2/C(=O)NN(c3ccc(Cl)c(Cl)c3)C2=O)cc([N+](=O)[O-])c1O	inactive
Cc1nn(-c2ccccc2)c(N2CCCC2)c1/C=N/NC(=O)c1cc(-c2cccnc2)nc2ccccc12	inconclusive: 39.8 µM [inhibitor, single point]
O=C(O)CCN1CCc2ccccc21	inactive
CCN1C(=O)/C(=C/c2c(C)nn(C)c2C)SC1=S	inactive
CC(=O)[C@]1(O)Cc2c(O)c3c(c(O)c2[C@@H](O[C@H]2C[C@H](N)[C@H](O)[C@H](C)O2)C1)C(=O)c1ccccc1C3=O	active: 20 µM
Cc1ccc(N2CCN(C(=S)c3ccc(-c4cccc([N+](=O)[O-])c4)o3)CC2)cc1	inconclusive: 44.7 µM [inhibitor, single point]
Cc1ccc(S(=O)(=O)N2CCC(=O)N(CCOC(=O)NCc3ccccc3)CC2)cc1	inconclusive: 7.94 µM [inhibitor, single point]
Cc1cccc(NC(=O)CNC(=O)c2ccc(-n3cncn3)c([N+](=O)[O-])c2)c1C	inactive
CCOc1ccc(S(=O)(=O)N2CCCCC2)c2ccccc12	inconclusive: 44.7 µM [inhibitor, single point]
O=C(N/N=C/c1ccc([N+](=O)[O-])s1)c1ccccc1	inconclusive: 39.8 µM [inhibitor, single point]
COC(=O)c1[nH]c2cc(OC)ccc2c1NC(=O)c1c(F)cccc1F	inconclusive: 8.91 µM [inhibitor, single point]
CN(C)c1ncc2nc(-c3ccc(Cl)cc3)c(=O)n(Cc3ccc(F)cc3)c2n1	active: 31.6 µM
CC(C)CN(Cc1cc(=O)oc2cc(-c3ccccc3)c(O)cc12)CC(C)C	inconclusive: 12.6 µM [inhibitor, partial curve, poor fit]
COc1ccc(OCC(O)CNC(=O)c2ccc(OC)cc2)cc1 (stereo not drawn)	inactive
Oc1[nH]c(=S)sc1/C=C1\C(c2ccccc2)=Nc2ccccc21	inactive
O=[N+]([O-])c1cccc(N/N=C/c2cccc(O)c2O)c1	inactive
Cc1occc1-c1nnc(SCc2cc(=O)n3cc(Br)ccc3n2)n1C	inconclusive: 44.7 µM [inhibitor, single point]
O=C(c1ccco1)N1CCc2[nH]nc(-c3ccccc3)c2C1	inactive
O=[N+]([O-])c1ccc(N2CCCCC2)nc1	inactive
CCc1nc(SCC(=O)N2CCN(c3ccccc3)CC2)c2c(=O)n(C)c(=O)n(C)c2n1	inactive
CN(C)c1c(N)[nH]c2c(c1=O)c(=O)n(C)c(=O)n2C	inconclusive: 0.0708 µM [inhibitor, full curve, poor fit]

Reformatted with each value named: entries from further up
CCn1c(SCC(=O)Nc2nc(C)cs2)nnc1-c1ccoc1C
  Potency: inactive
COc1ccc(N=Cc2oc3ccc4ccccc4c3c2O)cc1
  Potency: inconclusive: 39.8 µM [inhibitor, partial curve, poor fit]
Cc1ccc(C)c(N2CCN(C(=O)c3ccc(Cn4c(=S)[nH]c5ccc(N6CCOCC6)cc5c4=O)cc3)CC2)c1
  Potency: inconclusive: 1.12 µM [inhibitor, full curve]
CCOC(=O)c1c(NC(=O)COc2ncnc3ccccc23)sc(C(C)=O)c1C
  Potency: inconclusive: 17.8 µM [inhibitor, single point]

(next part)

Compound	Potency
CCO[C@H]1OC(C(=O)N2CCN(C)CC2)=C[C@@H](c2ccc(Br)cc2)[C@@H]1CCCO	inconclusive: 7.94 µM [inhibitor, single point]
CC(=O)N1N=C(c2ccccc2)OC1c1ccc([N+](=O)[O-])s1 (stereo not drawn)	inconclusive: 31.6 µM [inhibitor, single point]
CCN(CC)c1ccc(SS(=O)(=O)O)cc1	inactive
O=C1S/C(=C\c2ccc(O)c([N+](=O)[O-])c2)C(=O)N1Cc1cccc([N+](=O)[O-])c1	inconclusive: 39.8 µM [inhibitor, single point]
Clc1ccc2nc(-c3ccccc3)[nH]c2c1	inconclusive: 28.2 µM [inhibitor, partial curve, poor fit]
COc1ccccc1NC(=O)C1CCCN(c2ncnc3c2nc2n3CCCCC2)C1 (stereo not drawn)	inactive
COc1cc(OC)c2c(-c3ccccc3)cc(=O)oc2c1C(CC(=O)N1CCOCC1)c1ccc2c(c1)OCO2 (stereo not drawn)	inconclusive: 22.4 µM [inhibitor, partial curve]
Cc1c2cnn(CC(=O)Nc3c(F)c(F)cc(F)c3F)c(=O)c2c(C)n1Cc1ccccc1F	inconclusive: 39.8 µM [inhibitor, single point]
Cc1cc(/C=C(\C#N)C(=O)O)c(C)n1CC1CCCO1 (stereo not drawn)	inactive
CCOC(=O)C1=C(COC(=O)c2ccc([N+](=O)[O-])o2)NC(=O)NC1C (stereo not drawn)	inconclusive: 37.7 µM [inhibitor, single point]
NC(=O)Cc1ccc(C(=O)CSc2nnc(-c3ccncc3)n2C2CC2)s1	inactive
CCOc1ccc(Nc2nc(-c3sc(N)nc3C)cs2)cc1	inactive
N#Cc1c(NC(=O)/C=C/c2ccco2)sc2c1CCCC2	inconclusive: 3.16 µM [inhibitor, single point]
C[N+](C)(C)C(Cc1ccccc1)C(=O)[O-] (stereo not drawn)	inconclusive: 35.5 µM [inhibitor, single point]
O=C(c1ccccc1)N1CCC(c2nc(-c3ccc(S(=O)(=O)N4CCOCC4)cc3)no2)CC1	inactive
COc1ccc(S(=O)(=O)N2CCOCC2)cc1NC(=O)CO/N=C/c1ccccc1OC(F)F	inconclusive: 39.8 µM [inhibitor, single point]
c1cnc2ccc3ncccc3c2c1	inactive
O=C1c2ccccc2C(=O)c2c1ccc(O)c2O	inconclusive: 28.2 µM [inhibitor, partial curve]
CC(=O)OCC(=O)NCc1ccc2c(c1)OCO2	inconclusive: 5.01 µM [inhibitor, partial curve]
Cc1ccc(CNC(=O)c2cc(-c3cc(C)cc(C)c3O)n[nH]2)cc1	inconclusive: 28.2 µM [inhibitor, single point]
Cc1ccc(-n2sc3ccccc3c2=O)cc1S(=O)(=O)N1CCCCC1	inactive
CCOC(=O)C1=C(C)NC2=C(C(=O)CCC2)C1c1cc(OC)ccc1OC (stereo not drawn)	inconclusive: 3.16 µM [inhibitor, single point]
